Literature values in US20110082203A1, “PROCESS TO DIAGNOSE OR TREAT BRAIN INJURY” (priority 2008, published 2011).

System: muscarinic receptors
Conditions: given at the time of injury; cited from earlier work

Structure (SMILES): CN1[C@@H]2C[C@@H](OC(=O)[C@H](CO)c3ccccc3)C[C@H]1[C@@H]1O[C@@H]12 [scopolamine]
- Acute decrease in PIP2 derived fatty acids after TBI: significantly blunts
